{
  "source": "PubChem BioAssay AID328",
  "about": "(DTP/NCI, 2004)",
  "system": "BDF1 mice, P388 leukemia ip, median survival T/C",
  "test": "NCI In Vivo Anticancer Drug Screen. Data for tumor model P388 Leukemia (intraperitoneal) in B6D2F1 (BDF1) mice",
  "details": "T/C endpoint: median survival time, higher T/C = longer survival",
  "how_it_was_run": "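T/C = treated-group survival ÷ vehicle-control survival; tumour transplanted into mice before dosing.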",
  "note": "The list shows only some results of the screen, not a fair sample: it is rich in T/C values a quarter to a half above the control, in often repeated tests (any T/C) and in doses without a T/C. Other doses and runs of a compound stand elsewhere. T/C is the treated group as % of the vehicle group. Some entries give survivors of the animals treated and no T/C: the source files T/C as zero there, which appears to mark a toxic dose or a test without result, not a measured value. Some doses without a T/C left all or most animals alive at the check, yet need not have been tolerated: survival well below the control is almost never listed, so the zero probably covers shortened survival too. Survivors were counted at the toxicity check, usually on the fifth day, unless a day is given; later deaths do not show. Schedules are NCI's codes, taken here to give the interval after Q, in days (D) or hours (H), and the number of doses after X. For survival time, this PubChem deposit counts one and a half times the control or more as active, and values a quarter to a half above the control carry no call in these data; other NCI protocols may use other cut-offs.",
  "data": [
    {"smiles": "CC1CC[N-]CC1.CC1CC[N-]CC1.CC1CC[N-]CC1.CC1CC[N-]CC1.O=C([O-])C(=O)[O-].O=C([O-])C(=O)[O-].[Nb+5].[O-][O-].[O-][O-].[Pt+4]", "values": [
      {"measurement": "survivor count", "setting": "dose: 6.25 mg/kg/injection, schedule: Q01DX009 (ip), vehicle: saline", "result": "0 of 6"}
    ]},
    {"smiles": "Cn1cnccc1=O", "values": [
      {"measurement": "T/C", "setting": "dose: 25.0 mg/kg/injection, schedule: Q01DX009 (ip), vehicle: water", "result": "125 % of control"}
    ]},
    {"smiles": "CCC(CCC(C)C1CCC2C3CC=C4CC(OC5OC(CO)C(O)C(O)C5O)CCC4(C)C3CCC12C)C(C)C", "note": "(stereo not drawn)", "values": [
      {"measurement": "survivor count", "setting": "dose: 400.0 mg/kg/injection, schedule: Q04DX003 (ip), vehicle: Klucel (hydroxypropylcellulose) (HPC)", "result": "5 of 6"}
    ]}
  ]
}
